Three substances from paper PMC7195466, “A common allosteric mechanism regulates homeostatic inactivation of auxin and gibberellin” (Nature Communications, 2020) can be followed below.

By UniProt entry, the sequences of proteins in these tests, tags left out. Where a name states a change or a piece, a line headed by the entry shows the natural chain unless it says otherwise.
UniProt Q8S0S6: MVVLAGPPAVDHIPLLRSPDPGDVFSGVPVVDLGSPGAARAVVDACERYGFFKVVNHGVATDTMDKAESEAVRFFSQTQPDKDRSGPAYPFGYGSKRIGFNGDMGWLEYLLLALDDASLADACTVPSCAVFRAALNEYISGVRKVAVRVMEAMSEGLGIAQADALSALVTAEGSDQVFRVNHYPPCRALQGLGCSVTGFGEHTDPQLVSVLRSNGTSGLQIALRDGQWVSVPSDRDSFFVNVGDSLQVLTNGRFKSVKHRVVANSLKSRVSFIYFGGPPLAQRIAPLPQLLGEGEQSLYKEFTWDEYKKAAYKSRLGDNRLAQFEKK

These are yes or no findings as the source states them, for the method shown. For part of these data: In cells and extracts the contact can be indirect. Some binding calls cover weakened binding; strength is not graded here.

The target of assay [1] is Oryza sativa gibberellin 2-oxidase 3 (OsGA2ox3), wild type (rice (Oryza sativa)) (UniProt Q8S0S6). As to the kind of experiment: SEC; OsGA2ox3 purified in the absence of GA4; gel filtration without GA4; both purified. In general terms: In gel filtration, larger molecules generally elute earlier.
For assay [2], the target named is OsGA2ox3 triple mutant C194A, K308A, K313A (3Mu) (rice (Oryza sativa)) (UniProt Q8S0S6). Description: SEC; purified monomer incubated at 10 mg/ml, 25 °C, 18 h in buffer C (pH 7.4) with 10 mM GA4; Superdex 200 10/300GL, eluted with buffer C + 1 mM GA4 at 4 °C; both purified.
The target of assay [3] is OsGA2ox3 3Mu (C194A, K308A, K313A) fused with N- or C-YFP (BiFC) (rice (Oryza sativa)) (UniProt Q8S0S6). As to the kind of experiment: split reporter; BiFC: N-YFP and C-YFP fusions expressed together in rice T65 mesophyll protoplasts; confocal microscopy.

Consider “Oryza sativa gibberellin 2-oxidase 3 (OsGA2ox3), wild type (from UniProt Q8S0S6 1-327) (enzyme)”, for which, in assay [1], the binding entry was “binds weakly”.

Consider “OsGA2ox3 triple mutant C194A, K308A, K313A (3Mu) (from UniProt Q8S0S6 1-327) (enzyme)”, for which the binding result in assay [2] is listed as “no binding (tested: 10 mg/ml (with 10 mM GA4))”.

For “OsGA2ox3 3Mu (C194A, K308A, K313A) fused with N- or C-YFP (BiFC) (from UniProt Q8S0S6 1-327) (enzyme)”, in assay [3], the binding entry is on record as “no binding”.
